Measured values as given in US20220087275A1, “MAGNESIUM ION AS ANTIBACTERIAL AGENT” (THE STATE OF ISRAEL, MINISTRY OF AGRICULTURE & RURAL …, priority 2016, published 2022).

Description: In order to examine milk clotting parameters, milk samples obtained from the dairy farm of the Agricultural Research Organization (ARO; Bet Dagan, Israel). […] Milk-clotting parameters such as rennet clotting time (RCT; min) and curd firmness (CF; V) after 90 min (CF-90) which are measured with an Optigraph instrument (Ysebaert, Frepillon, France) as described by Leitner et al. (2011). Results are presented in a graph. The point in which the curve is split into two curves, represents the rennet Clotting Time (RCT), which is the time between the addition of the clotting enzyme and the beginning of the coagulation process. The curd firmness is derived from the distance of the two curves in the graph 30 min after the addition of the clotting enzyme, or 90 minutes after the addition of the clotting enzyme.

## [Cl-].[Cl-].[Mg+2] [MgCl2, magnesium chloride]
3 mM Mg
  Curd firmness (volts), Average: 11.88 volts
  RCT (minutes), Average: 12.12 min
5 mM Mg
  Curd firmness (volts), Average: 13.56 volts
  RCT (minutes), Average: 9.42 min

Read-outs that look alike come from different tables or passages of the source.
